No constants are given. Whether binding was seen depends on the method and setting. Some entries that bind do so weakly or less than the wild type. For part of these data: Tags and fused reporters may be left off the sequences shown.
Experiments:
[1] = biological target: T1, Smaug (split-ubiquitin two-hybrid bait) (D. melanogaster) (UniProt Q23972); experiment: two-hybrid; split-ubiquitin yeast two-hybrid, NMY51 cells, Smaug as bait; growth on SC agar lacking Trp, Leu, His and adenine, three days
T1 sequence: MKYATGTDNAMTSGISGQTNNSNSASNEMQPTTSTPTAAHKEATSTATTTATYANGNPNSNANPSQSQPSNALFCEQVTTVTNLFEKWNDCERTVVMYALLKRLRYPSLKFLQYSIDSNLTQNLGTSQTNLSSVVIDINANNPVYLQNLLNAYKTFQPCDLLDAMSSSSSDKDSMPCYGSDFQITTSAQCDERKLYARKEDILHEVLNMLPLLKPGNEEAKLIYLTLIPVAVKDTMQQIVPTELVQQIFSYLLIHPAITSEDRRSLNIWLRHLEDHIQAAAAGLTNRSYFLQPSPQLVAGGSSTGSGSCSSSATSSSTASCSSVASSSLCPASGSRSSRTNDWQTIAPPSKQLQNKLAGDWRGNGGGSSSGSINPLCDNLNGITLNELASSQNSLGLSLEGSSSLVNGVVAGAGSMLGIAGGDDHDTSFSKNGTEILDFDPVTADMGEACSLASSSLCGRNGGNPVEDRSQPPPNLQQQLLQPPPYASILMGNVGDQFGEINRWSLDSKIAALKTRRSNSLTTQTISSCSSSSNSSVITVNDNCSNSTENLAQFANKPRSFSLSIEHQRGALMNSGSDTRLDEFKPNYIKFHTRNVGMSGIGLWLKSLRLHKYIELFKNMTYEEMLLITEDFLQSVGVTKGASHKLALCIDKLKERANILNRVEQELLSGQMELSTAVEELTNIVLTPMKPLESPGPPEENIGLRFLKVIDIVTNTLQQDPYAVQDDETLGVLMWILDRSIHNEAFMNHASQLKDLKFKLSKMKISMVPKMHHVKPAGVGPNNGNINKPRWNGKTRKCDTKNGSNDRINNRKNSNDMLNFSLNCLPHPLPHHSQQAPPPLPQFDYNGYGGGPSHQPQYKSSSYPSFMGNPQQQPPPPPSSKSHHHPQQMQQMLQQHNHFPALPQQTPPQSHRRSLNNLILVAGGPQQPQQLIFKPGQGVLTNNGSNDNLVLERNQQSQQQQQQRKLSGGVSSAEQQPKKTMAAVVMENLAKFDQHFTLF

[2] = biological target: NOT1 fused with mCherry and the PH domain of rat phospholipase Cδ1 (D. melanogaster) (UniProt A8DY81); experiment: ReLo (relocalization) assay; Drosophila S2R+ cells co-transfected with pAc5.1 plasmids; bait on the plasma membrane through a PH domain, prey with a fluorescent tag; live confocal fluorescence microscopy after two days
[3] = biological target: T2, NOT2 fused with mCherry and the PH domain of rat phospholipase Cδ1 (D. melanogaster), Q94547; experiment: as above; details: remark: other sources report otherwise
T2 chain: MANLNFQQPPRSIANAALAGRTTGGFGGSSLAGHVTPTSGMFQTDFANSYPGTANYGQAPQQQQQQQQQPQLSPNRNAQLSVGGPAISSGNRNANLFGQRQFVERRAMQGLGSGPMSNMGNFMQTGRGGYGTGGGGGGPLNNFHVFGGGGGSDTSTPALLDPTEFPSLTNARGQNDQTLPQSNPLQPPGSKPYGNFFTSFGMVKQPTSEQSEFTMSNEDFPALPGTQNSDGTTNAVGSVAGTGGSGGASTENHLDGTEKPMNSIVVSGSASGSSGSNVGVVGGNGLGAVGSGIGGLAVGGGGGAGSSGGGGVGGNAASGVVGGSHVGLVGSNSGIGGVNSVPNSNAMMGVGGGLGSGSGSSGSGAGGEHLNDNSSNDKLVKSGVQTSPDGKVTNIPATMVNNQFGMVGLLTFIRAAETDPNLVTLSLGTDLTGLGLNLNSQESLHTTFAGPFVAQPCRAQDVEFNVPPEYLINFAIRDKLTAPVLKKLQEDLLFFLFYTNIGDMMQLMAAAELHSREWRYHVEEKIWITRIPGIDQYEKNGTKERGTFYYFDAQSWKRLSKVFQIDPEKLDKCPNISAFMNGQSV

B1: NOT1 fragment comprising amino acids 752–910 (split-ubiquitin two-hybrid prey) (domain or fragment, UniProt A8DY81 752-910)
chain: NVAIMANKARAQQQQQPGLVPPPPPTILRGHRGMDLPGGIVPPPPQQPFSGNLNAQMFGPGMDPLTNMSNNLAGLNLSGPNGAFNFGNMLTSPSRLMTPGANPYPLNLMQMPQAPPPPNVGNLGRMLPGGPQQQTPTPTPTAPNPNNPVMADLQIPVSK
Which binding [1] does the source give for B1 here?
Its binding is “binds”.

B2: EGFP-Smaug (protein, UniProt Q23972 1-999)
chain: T1 sequence
With B2 as the binder, how does the binding [2] read?
Its binding is “no binding”.

B3: EGFP-Smaug, Q23972 1-999 (protein)
chain: T1 sequence
How did the binding [3] turn out when B3 was run?
The binding was “no binding”.

Source: paper PMC10164591, “RNA binding proteins Smaug and Cup induce CCR4–NOT-dependent deadenylation of the nanos mRNA in a reconstituted system”
